We go through 32 molecules from PubChem BioAssay AID256 (DTP/NCI, 2004).

The assay concerns CD2F1 mice, L1210 leukemia ip, survival T/C. Description: NCI In Vivo Anticancer Drug Screen. Data for tumor model L1210 Leukemia (intraperitoneal) in CD2F1 (CDF1) mice. Particulars: higher T/C = longer survival. The essentials:
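Mice carrying a transplanted tumor received test compound or vehicle alone. The value is the measurement in the treated group divided by that in the vehicle-treated control group.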

Setting [1] is: T/C endpoint: mean survival time, dose: 400.0 mg/kg/injection, schedule: Q04DX003 (ip), vehicle: saline with Tween-80.
Where [2] appears, read: T/C endpoint: mean survival time, dose: 200.0 mg/kg/injection, schedule: Q01DX009 (ip), vehicle: saline with Tween-80.
The mark [3] stands for this setting: T/C endpoint: mean survival time, dose: 300.0 mg/kg/injection, schedule: Q01DX009 (ip), vehicle: saline.
Where [4] appears, read: T/C endpoint: mean survival time, dose: 400.0 mg/kg/injection, schedule: Q01DX001 (ip), vehicle: saline with Tween-80.
[5] abbreviates: T/C endpoint: mean survival time, dose: 300.0 mg/kg/injection, schedule: Q01DX001 (ip), vehicle: saline.
Setting [6] is: T/C endpoint: mean survival time, dose: 100.0 mg/kg/injection, schedule: Q01DX009 (ip), vehicle: saline with Tween-80.

The list shows only some results of the screen, not a fair sample: it gathers tests that were run many times, whatever their T/C, doses with no T/C, and many T/C values between a quarter and a half above the control. Further doses and runs are listed elsewhere. T/C gives the treated animals as a percentage of the vehicle group. Some entries give survivors of the animals treated and no T/C: the source files T/C as zero there, which appears to mark a toxic dose or a test without result, not a measured value. Some doses without a T/C left all or most animals alive at the check, yet need not have been tolerated: survival well below the control is almost never listed, so the zero probably covers shortened survival too. Counts of survivors are from the toxicity check (mostly the fifth day) where no day follows; animals may have died later. Schedule codes are those of the source, taken here to give the interval after Q, in days (D) or hours (H), and the number of doses after X. Counts like (3×) count equal records among those shown. Some entries were tested several times; their values stand side by side, smallest first. Where survival is the endpoint, this PubChem deposit counts one and a half times the control or more as active, and values a quarter to a half above the control carry no call in these data; other NCI protocols may use other cut-offs. Some T/C values carry the count of animals alive at the toxicity check (mostly the fifth day); where none is given, no animal had died by that day.

On to `CC(=O)OC1COC(NC(=O)N(CCCl)N=O)C(OC(C)=O)C1OC(C)=O` (stereo unspecified), for which the T/C reads like this: (T/C endpoint: median survival time, dose: 1.5 mg/kg/injection, schedule: Q01DX009 (ip), vehicle: saline with Tween-80, evaluated on day 30) 125 and 139 % of control; (T/C endpoint: median survival time, dose: 1.5 mg/kg/injection, schedule: Q01DX009 (ip), vehicle: saline with Tween-80, evaluated on day 60) 144 % of control; (T/C endpoint: median survival time, dose: 3.0 mg/kg/injection, schedule: Q01DX009 (ip), vehicle: saline with Tween-80) 140 % of control. Turning to `COC(=O)C(N)CSCc1ccccc1` (stereo unspecified), the survivor count (T/C endpoint: mean survival time, dose: 200.0 mg/kg/injection, schedule: Q01DX001 (ip), vehicle: saline) is 3 of 6. On to `Nc1nc(N)c2nc(CNc3ccc(C(=O)NC(CCC(=O)NC(CCC(=O)O)C(=O)O)C(=O)O)cc3)cnc2n1` (stereo unspecified), for which the survivor count (T/C endpoint: mean survival time, dose: 1.7 mg/kg/injection, schedule: Q01DX009 (ip), vehicle: sodium bicarbonate) is recorded as 5 of 6; the survivor count (T/C endpoint: mean survival time, dose: 2.6 mg/kg/injection, schedule: Q01DX009 (ip), vehicle: sodium bicarbonate) is listed as 5 of 6; the survivor count (T/C endpoint: mean survival time, dose: 4.0 mg/kg/injection, schedule: Q01DX009 (ip), vehicle: sodium bicarbonate) is 6 of 6; the survivor count (T/C endpoint: mean survival time, dose: 6.0 mg/kg/injection, schedule: Q01DX009 (ip), vehicle: sodium bicarbonate) is on record as 5 of 6.

Take `CC#CS(=O)(=O)C(C)(C)C`: the survivor count under setting [1] was 5 of 6.

Turning to `O=C(Nc1c(Cl)cccc1Cl)Oc1ccc(Br)cc1`, the survivor count under setting [2] was 3 of 3. As to `c1cc[n+]2c(c1)-c1cccc[n+]1CCCC2`, under setting [3], the survivor count is given as 0 of 6.

`Nc1[nH]c(=O)[nH]c(=O)c1N`: the survivor count by setting is: (T/C endpoint: mean survival time, dose: 400.0 mg/kg/injection, schedule: Q04DX002 (ip), vehicle: saline) 0 of 3; under setting [1], 1 of 6. On to `CC1(C)N=C(N)N=C(N)N1c1ccc(OCCOc2ccc(NC(=O)CBr)cc2)cc1`, for which, where the note is “T/C endpoint: mean survival time, dose: 400.0 mg/kg/injection, schedule: Q01DX006 (ip), vehicle: other”, the T/C is 149 % of control. Regarding `CC(=O)Nc1ccc(S(=O)(=O)F)cc1`, the survivor count was 1 of 6 under setting [2], 0 of 3 under setting [4] and 2 of 6 under setting [1]. With `O=[N+]([O-])/C=C/c1ccccc1`, the survivor count is, setting by setting: (T/C endpoint: mean survival time, dose: 40.0 mg/kg/injection, schedule: Q01DX009 (ip), vehicle: saline with Tween-80) 0 of 6; (T/C endpoint: mean survival time, dose: 80.0 mg/kg/injection, schedule: Q01DX009 (ip), vehicle: saline with Tween-80) 2 of 6. With `COc1ccc2nc3cc(Cl)ccc3c(Nc3cccc(NC(C)=O)c3)c2n1`, the survivor count reads like this: (T/C endpoint: mean survival time, dose: 200.0 mg/kg/injection, schedule: Q01DX009 (ip), vehicle: other) 0 of 6; (T/C endpoint: mean survival time, dose: 400.0 mg/kg/injection, schedule: Q01DX009 (ip), vehicle: other) 0 of 6. Take `CC(=O)Oc1ccc[nH]c1=O`: the T/C was 142 and 143 % of control under setting [3]; 129 [5 of 6 alive] and 144 % of control (T/C endpoint: mean survival time, dose: 500.0 mg/kg/injection, schedule: Q01DX009 (ip), vehicle: saline); 129 and 136 % of control (T/C endpoint: median survival time, dose: 266.0 mg/kg/injection, schedule: Q03HX027 (ip), vehicle: saline with Tween-80); 125, 137, 144 % of control (T/C endpoint: median survival time, dose: 400.0 mg/kg/injection, schedule: Q01DX009 (ip), vehicle: saline with Tween-80). The survivor count is, setting by setting: (T/C endpoint: median survival time, dose: 532.0 mg/kg/injection, schedule: Q03HX027 (ip), vehicle: saline with Tween-80) 0 of 6; (T/C endpoint: median survival time, dose: 800.0 mg/kg/injection, schedule: Q01DX009 (ip), vehicle: saline with Tween-80) 2 of 6 and 3 of 6. For the molecule `CN1CCCC(OC(=O)C(c2ccccc2)C2(O)CCCCC2)C1` (stereo unspecified), the survivor count (T/C endpoint: mean survival time, dose: 150.0 mg/kg/injection, schedule: Q01DX001 (ip), vehicle: saline) is listed as 2 of 6 and the survivor count under setting [5] is 0 of 6. Turning to `c1ccc(C[n+]2ccccc2)cc1`, the survivor count under setting [6] was 0 of 3 and the survivor count under setting [2] is 0 of 3. For `Cc1cccc(CC(F)F)c1`, the survivor count under setting [4] is on record as 3 of 6.

With `CN(C)C(=S)NN`, the survivor count reads like this: (T/C endpoint: mean survival time, dose: 12.5 mg/kg/injection, schedule: Q01DX001 (ip), vehicle: saline) 3 of 6; (T/C endpoint: mean survival time, dose: 25.0 mg/kg/injection, schedule: Q01DX001 (ip), vehicle: saline) 0 of 6; (T/C endpoint: mean survival time, dose: 50.0 mg/kg/injection, schedule: Q01DX001 (ip), vehicle: saline) 0 of 6.

Take `CC(=O)C(=O)C1=C2CCCN2CCc2cc3c(cc21)OCO3`: the survivor count is, setting by setting: (T/C endpoint: mean survival time, dose: 200.0 mg/kg/injection, schedule: Q01DX009 (ip), vehicle: water) 1 of 6; (T/C endpoint: mean survival time, dose: 400.0 mg/kg/injection, schedule: Q01DX009 (ip), vehicle: water) 0 of 6. For the molecule `O=[N+]([O-])c1[nH]c(Br)nc1Br`, the survivor count under setting [1] is recorded as 0 of 6.

For `COc1c(C)ccc2c1CCN1C3=C(CCC21)CC1(CC3)OCCO1` (stereo unspecified), for the setting “T/C endpoint: mean survival time, dose: 400.0 mg/kg/injection, schedule: Q01DX009 (ip), vehicle: saline with Tween-80”, the survivor count is 3 of 6. On to `COc1ccc(NC(=O)Nc2ccccc2C)c(OC)c1`, for which, for the setting “T/C endpoint: mean survival time, dose: 100.0 mg/kg/injection, schedule: Q04DX002 (ip), vehicle: saline with Tween-80”, the survivor count is on record as 3 of 3. Turning to `CC(=O)OC1CCCCCCCCCCC12OCCO2` (stereo unspecified), where the note is “T/C endpoint: mean survival time, dose: 200.0 mg/kg/injection, schedule: Q04DX002 (ip), vehicle: other”, the T/C is 125 % of control. For the molecule `CC(=N\N)/C(C)=N/N`, the survivor count is 3 of 6 (T/C endpoint: mean survival time, dose: 200.0 mg/kg/injection, schedule: Q04DX003 (ip), vehicle: saline with Tween-80) and 2 of 6 under setting [1]. For the molecule `Nc1cc(Cl)c(Cl)cc1Cl`, the survivor count reads like this: under setting [6], 3 of 6; under setting [2], 3 of 6; under setting [1], 2 of 6. For `CCC(=O)c1cc([N+](=O)[O-])ccc1N`, the survivor count under setting [1] is 5 of 6.

For `CCNc1nc(NCC)nc(OC)n1`, the survivor count under setting [1] was 3 of 6. As to `CCn1cnc2c(SC3CCCC3)ncnc21`, the T/C (T/C endpoint: mean survival time, dose: 800.0 mg/kg/injection, schedule: Q01DX001 (ip), vehicle: carboxymethylcellulose (CMC)) was 137 % of control [5 of 6 alive]. In the case of `O=C1CCCC[CH]1[Hg][Cl]` (stereo unspecified), the survivor count (T/C endpoint: mean survival time, dose: 5.0 mg/kg/injection, schedule: Q01DX009 (ip), vehicle: saline) is 1 of 6. With `Cc1cccc(OCC(O)CN2CC2)c1` (stereo unspecified), the T/C runs as follows: (T/C endpoint: median survival time, dose: 100.0 mg/kg/injection, schedule: Q01DX005 (ip), vehicle: saline with Tween-80, evaluated on day 26) 135 % of control; (T/C endpoint: median survival time, dose: 100.0 mg/kg/injection, schedule: Q01DX005 (ip), vehicle: saline with Tween-80, evaluated on day 30) 127 % of control. In addition, the survivor count is 0 of 6 (2×) (T/C endpoint: median survival time, dose: 200.0 mg/kg/injection, schedule: Q01DX005 (ip), vehicle: saline with Tween-80) and 3 of 6 (T/C endpoint: median survival time, dose: 277.77 mg/kg/injection, schedule: Q01DX005 (ip), vehicle: saline with Tween-80).

With `CNc1ncnc2c(C3OC(CO)C(O)C3O)[nH]nc12` (stereo unspecified), the survivor count runs as follows: (T/C endpoint: mean survival time, dose: 200.0 mg/kg/injection, schedule: Q01DX005 (ip), vehicle: water) 1 of 6; (T/C endpoint: mean survival time, dose: 400.0 mg/kg/injection, schedule: Q01DX005 (ip), vehicle: water) 1 of 6. `CC(=O)OCC1OC([S-])C(OC(C)=O)C(OC(C)=O)C1OC(C)=O.CC[PH+](CC)CC.CC[PH+](CC)CC.[Au].[Au]` (stereo unspecified): the survivor count (T/C endpoint: mean survival time, dose: 20.0 mg/kg/injection, schedule: Q01DX009 (ip), vehicle: Klucel (hydroxypropylcellulose) (HPC)) was 0 of 10 and 0 of 6. As for `CO/N=C(/c1ccccc1)c1cc[n+](C)cc1`, the survivor count reads like this: (T/C endpoint: mean survival time, dose: 150.0 mg/kg/injection, schedule: Q04DX003 (ip), vehicle: saline) 4 of 6; under setting [5], 1 of 6.

For the molecule `COc1cc2c(c(OC)c1OC)-c1ccc(OC)c(=O)cc1[C@@H](N(C)C(C)=O)CC2`, the T/C (T/C endpoint: mean survival time, dose: 0.5 mg/kg/injection, schedule: Q01DX005 (ip), vehicle: Klucel (hydroxypropylcellulose) (HPC)) was 132 % of control. For the same molecule, the survivor count (T/C endpoint: mean survival time, dose: 2.0 mg/kg/injection, schedule: Q01DX005 (ip), vehicle: Klucel (hydroxypropylcellulose) (HPC)) is 0 of 6.
